# Assay results: US10947317B2, “NaPi2b-targeted antibody-drug conjugates and methods of use thereof” (Mersana Therapeutics, Inc., priority 2016, dated 2021)
# At least one read-out could not be matched to a standard name with certainty.
# Experiment: Plasma pharmacokinetics in cynomolgus monkeys
# Type: in vivo
# Conditions: single IV infusion 1.25, 2.5 or 5 mg/kg
# Protocol: To determine the pharmacokinetics of the NaPi2b antibody-polymer-drug conjugates, assays were developed to measure the plasma concentration of the NaPi2b antibody-PHF-AF-HPA conjugate (i.e., conjugated AF-HPA) and concentration of the released, unconjugated AF-HPA and AF (free drugs). To determine the plasma concentration of the free drugs, the acidified plasma sample was treated with acetonitrile to precipitate plasma proteins and antibody drug conjugate and the acetonitrile containing supernatant was analyzed for free drugs by LC-MS/MS. To determine the concentration of conjugated AF-HPA, the acidified plasma sample was subjected to basic hydrolysis followed by acidification and protein precipitation with acetonitrile. The acetonitrile supernatant containing the released AF-HPA and AF was analyzed by LC-MS/MS. […] Total NaPi2b concentration was determined by ELISA. […]
# The blood samples were analyzed by LC-MS/MS to determine the concentration of total AF-HPA and by ELISA to determine the total antibody concentration at each time point. […] Table VIII gives the calculated AUC0 to 504 hrs and half-lives for total antibody and the total AF-HPA. Free drugs (i.e., unconjugated AF and unconjugated AF-HPA) were not detected (LLOQ of the LC MS/MS method was 1 ng/mL).
substance,measurement,value
XMT-1535-(EG2-MI-(10 kDa PHF-BA-(AF-HPA-Ala))) [Example 1C],"Plasma Half-life T1/2, Dose Range Average, Drug Release",11.6 ± 0.9 days
